Laboratory results from PMC7370230.
These are yes or no findings as the source states them, for the method shown. In cells and extracts the contact can be indirect. Some binding calls cover weakened binding; strength is not graded here.

The chains behind the UniProt entries cited, without tags or fusion partners.
UniProt Q8K1M6: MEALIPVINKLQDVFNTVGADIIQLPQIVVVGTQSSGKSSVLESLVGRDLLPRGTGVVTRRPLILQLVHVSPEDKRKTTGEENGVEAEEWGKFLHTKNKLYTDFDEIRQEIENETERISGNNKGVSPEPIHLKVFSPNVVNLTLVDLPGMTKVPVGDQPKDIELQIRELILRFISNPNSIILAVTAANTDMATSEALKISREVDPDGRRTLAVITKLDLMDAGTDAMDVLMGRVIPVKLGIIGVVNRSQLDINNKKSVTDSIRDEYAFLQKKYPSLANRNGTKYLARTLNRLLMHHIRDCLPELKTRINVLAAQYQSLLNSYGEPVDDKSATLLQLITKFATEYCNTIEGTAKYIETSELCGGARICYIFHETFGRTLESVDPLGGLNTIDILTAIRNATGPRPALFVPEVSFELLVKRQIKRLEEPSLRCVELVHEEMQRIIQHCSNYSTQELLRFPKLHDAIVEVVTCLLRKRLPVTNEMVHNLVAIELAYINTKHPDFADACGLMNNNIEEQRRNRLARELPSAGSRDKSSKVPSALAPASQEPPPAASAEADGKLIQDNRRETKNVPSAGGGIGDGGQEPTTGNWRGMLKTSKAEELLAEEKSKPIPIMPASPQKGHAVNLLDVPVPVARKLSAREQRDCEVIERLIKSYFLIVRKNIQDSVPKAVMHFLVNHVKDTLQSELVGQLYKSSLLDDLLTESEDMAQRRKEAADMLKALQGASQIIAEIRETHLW
UniProt Q61768: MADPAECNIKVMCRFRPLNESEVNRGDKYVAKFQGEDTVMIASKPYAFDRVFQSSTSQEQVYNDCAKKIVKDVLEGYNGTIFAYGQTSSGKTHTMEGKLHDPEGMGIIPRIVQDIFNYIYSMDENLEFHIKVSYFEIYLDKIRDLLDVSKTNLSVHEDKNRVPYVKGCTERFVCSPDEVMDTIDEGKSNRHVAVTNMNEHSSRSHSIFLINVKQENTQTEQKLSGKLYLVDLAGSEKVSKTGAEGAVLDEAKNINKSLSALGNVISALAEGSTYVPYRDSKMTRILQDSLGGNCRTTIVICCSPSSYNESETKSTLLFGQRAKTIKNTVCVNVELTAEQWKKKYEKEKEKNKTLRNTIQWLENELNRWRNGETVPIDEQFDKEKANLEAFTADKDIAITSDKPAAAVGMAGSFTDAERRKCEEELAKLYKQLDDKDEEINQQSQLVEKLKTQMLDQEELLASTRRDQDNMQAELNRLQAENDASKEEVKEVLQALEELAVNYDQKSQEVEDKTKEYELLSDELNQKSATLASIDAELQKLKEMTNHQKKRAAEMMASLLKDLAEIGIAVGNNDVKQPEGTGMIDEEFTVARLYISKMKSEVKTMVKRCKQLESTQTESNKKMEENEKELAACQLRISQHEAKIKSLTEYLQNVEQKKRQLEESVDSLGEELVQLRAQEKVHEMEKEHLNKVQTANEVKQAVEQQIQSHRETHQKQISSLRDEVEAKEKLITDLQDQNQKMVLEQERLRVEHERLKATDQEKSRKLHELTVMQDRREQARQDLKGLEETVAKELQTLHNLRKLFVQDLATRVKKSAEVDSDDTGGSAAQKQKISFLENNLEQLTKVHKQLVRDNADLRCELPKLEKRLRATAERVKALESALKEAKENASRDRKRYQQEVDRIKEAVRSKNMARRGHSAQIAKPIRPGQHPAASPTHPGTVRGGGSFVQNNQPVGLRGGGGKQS
UniProt O88447: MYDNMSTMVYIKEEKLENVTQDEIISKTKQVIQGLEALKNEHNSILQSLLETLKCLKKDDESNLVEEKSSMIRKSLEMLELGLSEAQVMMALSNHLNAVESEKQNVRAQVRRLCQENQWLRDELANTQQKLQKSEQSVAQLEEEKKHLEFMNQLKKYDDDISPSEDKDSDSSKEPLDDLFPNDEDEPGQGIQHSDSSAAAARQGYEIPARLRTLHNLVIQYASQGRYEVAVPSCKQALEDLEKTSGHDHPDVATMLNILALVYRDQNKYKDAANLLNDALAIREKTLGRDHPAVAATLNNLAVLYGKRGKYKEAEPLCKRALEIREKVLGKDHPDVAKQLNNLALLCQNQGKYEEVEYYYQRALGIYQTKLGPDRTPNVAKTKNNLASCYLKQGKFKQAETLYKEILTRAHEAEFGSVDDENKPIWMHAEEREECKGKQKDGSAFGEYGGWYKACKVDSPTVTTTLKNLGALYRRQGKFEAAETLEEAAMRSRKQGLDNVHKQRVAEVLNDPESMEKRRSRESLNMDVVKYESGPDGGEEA

Assays:
[1] = biological target: dynamin-related protein 1 (Drp1) (not stated (transgene in Drp/MC mice; endogenous mouse Drp1 also present)) (UniProt Q8K1M6); assay: co-IP; muscle (TA, gastrocnemius) lysates of WT and Drp/MC mice at P25, also of Drp/MC mice treated or not with Mdivi-1; lysis buffer 20 mM Tris-HCl pH 8, 137 mM NaCl, 10% glycerol, 1% NP-40, 2 mM EDTA; overnight with antibody to Drp1 or KIF5B and protein A or G Sepharose; control IgG as negative control; immunoblot
[2] = biological target: kinesin heavy chain KIF5B (mouse (endogenous in skeletal muscle)) (UniProt Q61768); assay: as above
[3] = biological target: dynamin-related protein 1 (Drp1) (not stated (transgene in Drp/MC mice; endogenous mouse Drp1 also present)) (UniProt Q8K1M6); assay: proximity ligation; Duolink PLA on fixed, permeabilised TA muscle sections and single myofibres of WT/PhAM and Drp/MC/PhAM mice, also of Drp/MC mice treated or not with Mdivi-1; PLA puncta counted

binding [1]	binding [2]	binding [3]	Substance
no binding	–	–	kinesin heavy chain KIF5B (from UniProt Q61768 1-963)
–	no binding	–	dynamin-related protein 1 (Drp1) (from UniProt Q8K1M6 1-736)
binds	–	binds	kinesin light chain 1 (KLC1) (from UniProt O88447 1-541)
